Consider 1 substance from PMC10333084.

Chains of the proteins cited; added tags and fusions are not shown.
UniProt Q8TAQ2: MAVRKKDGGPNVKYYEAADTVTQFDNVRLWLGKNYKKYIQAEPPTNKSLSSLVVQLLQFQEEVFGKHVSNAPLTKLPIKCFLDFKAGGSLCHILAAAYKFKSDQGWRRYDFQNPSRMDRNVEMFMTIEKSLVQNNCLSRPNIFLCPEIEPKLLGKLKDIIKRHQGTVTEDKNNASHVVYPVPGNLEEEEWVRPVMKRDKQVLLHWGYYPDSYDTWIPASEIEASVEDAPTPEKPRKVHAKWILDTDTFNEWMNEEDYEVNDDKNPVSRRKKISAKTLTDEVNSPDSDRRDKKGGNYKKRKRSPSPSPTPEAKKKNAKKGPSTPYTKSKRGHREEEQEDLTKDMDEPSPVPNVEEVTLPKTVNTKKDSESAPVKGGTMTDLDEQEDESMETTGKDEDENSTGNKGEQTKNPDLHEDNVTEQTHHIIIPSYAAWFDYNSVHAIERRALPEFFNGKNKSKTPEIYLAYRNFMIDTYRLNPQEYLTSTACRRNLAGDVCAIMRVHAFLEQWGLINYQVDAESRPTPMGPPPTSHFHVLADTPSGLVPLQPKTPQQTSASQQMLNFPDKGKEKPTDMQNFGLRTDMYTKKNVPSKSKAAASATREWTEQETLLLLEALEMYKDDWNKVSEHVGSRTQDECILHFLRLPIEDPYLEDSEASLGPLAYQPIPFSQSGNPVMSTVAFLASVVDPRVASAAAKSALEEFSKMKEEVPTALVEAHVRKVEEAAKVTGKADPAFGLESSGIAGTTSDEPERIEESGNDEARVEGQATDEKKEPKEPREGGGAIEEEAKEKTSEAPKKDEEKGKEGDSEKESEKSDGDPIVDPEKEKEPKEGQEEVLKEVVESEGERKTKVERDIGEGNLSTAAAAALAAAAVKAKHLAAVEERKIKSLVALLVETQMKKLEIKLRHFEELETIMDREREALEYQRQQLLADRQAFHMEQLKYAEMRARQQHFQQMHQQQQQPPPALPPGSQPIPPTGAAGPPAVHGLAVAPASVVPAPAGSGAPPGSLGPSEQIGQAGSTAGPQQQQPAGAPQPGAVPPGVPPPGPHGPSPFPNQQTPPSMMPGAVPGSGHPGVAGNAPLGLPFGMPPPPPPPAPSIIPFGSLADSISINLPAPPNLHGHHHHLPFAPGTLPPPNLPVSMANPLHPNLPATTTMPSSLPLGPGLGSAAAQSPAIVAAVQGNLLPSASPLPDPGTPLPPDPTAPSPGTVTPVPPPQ

These are yes or no findings as the source states them, for the method shown. In cells and extracts the contact can be indirect. Some entries that bind do so weakly or less than the wild type.

For this assay, the target named is T1, F-box only protein 28 (FBXO28) (UniProt Q9NVF7).
T1 sequence: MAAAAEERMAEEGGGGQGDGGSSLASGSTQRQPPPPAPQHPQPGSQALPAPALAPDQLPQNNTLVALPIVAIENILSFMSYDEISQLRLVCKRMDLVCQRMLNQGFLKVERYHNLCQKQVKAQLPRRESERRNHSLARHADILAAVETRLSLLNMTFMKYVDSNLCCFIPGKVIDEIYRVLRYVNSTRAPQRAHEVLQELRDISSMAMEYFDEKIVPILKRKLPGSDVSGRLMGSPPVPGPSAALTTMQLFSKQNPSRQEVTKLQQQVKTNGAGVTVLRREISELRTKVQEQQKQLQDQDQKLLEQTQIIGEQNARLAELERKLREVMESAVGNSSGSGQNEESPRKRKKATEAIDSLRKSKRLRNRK
Put plainly: co-IP; cell lysate pre-cleared with protein A+G, incubated with anti-Flag, anti-SMARCC2, anti-HA or normal rabbit IgG overnight at 4 °C, protein A+G for 4 hours; SDS-PAGE and western blot.

On to SMARCC2 (from UniProt Q8TAQ2 1-1214), for which the binding result is on record as “binds”.
